Data reported in US20100099719A1, “COMPOSITION AND METHOD FOR TREATING PROTEINURIA” (DIEREPHARMA, INC., priority 2008, published 2010).

Tested on: streptozotocin-induced diabetic rats
Assay: Streptozotocin-induced diabetic nephropathy in rats
Type: in vivo, Sprague-Dawley rats
Procedure: Diabetic kidney disease in the rat was induced by streptozotocin (STZ) to test the effectiveness of 5-methyl-2(1H)-pyridone (AKF-PD) in preserving kidney function by reducing the level of proteinuria.
Diabetic nephropathy was induced in Sprague-Dawley rats with a single intravenous injection of STZ (45 mg/kg). Streptozotocin was injected in a single dose of 45 mg/kg, i.v., to rats (Male Sprague-Dawley rats (200-250 g). Age-matched control rats received citrate buffer and were used in parallel with diabetic animals. Two days after STZ injection, plasma glucose levels were measured. Rats having plasma glucose levels>250 mg/dL after 4 weeks were selected for the study. Control and diabetic rats were divided into two groups, consisting of 6 animals each. AKF-PD was suspended in 0.5% sodium carboxy methylcellulose (CMC). From 4 to 8 weeks after the initial STZ injection, the first group of control animals received vehicle, and the second group received a suspension of AKF-PD (500 mg/kg per day) orally. Similarly, one group of diabetic rats received vehicle and the second group received AKF-PD (500 mg/kg per day). At the end of 8th week, rats were kept individually in metabolic cages for 24 h to collect urine for the measurements. Renal function was assessed by measuring plasma and urine levels of creatinine and urea and urine albumin excretion. Plasma glucose levels were also measured at 4 weeks and at the end of the experiment to investigate the effect of AKF-PD on glucose levels. Urinary proteins were measured by Bio-Rad protein assay (Bio-Rad, Hercules, Calif.). Blood urea nitrogen and creatinine levels were measured using Beckman analyzers (BUN Analyzer II, and Creatinine Analyzer II Beckman Instruments Inc., Brea, Calif.).

[1] = DN (diabetic) rats + AKF-PD 500 mg/kg per day p.o., 4 weeks, mean ± SEM (n = 6)
[2] = control rats + AKF-PD 500 mg/kg per day p.o., 4 weeks, mean ± SEM (n = 6)

## Cc1ccc(=O)n(-c2cccc(F)c2)c1 [AKF-PD, 1-(3′-Fluorophenyl)-5-Methyl-2(1H)-Pyridone]
500 mg/kg per day from 4 to 8 weeks, control or diabetic rats
  plasma glucose levels and bodyweight: did not alter
[1]
  Bodyweight: 192.82 ± 3.91 g
  Plasma glucose levels: 440.25 ± 9.55 mg/dL
Control rats + AKF-PD 500 mg/kg per day p.o., 4 weeks, 24 h urine, mean ± SEM (n = 6)
  Urine output: 11.15 ± 0.75 mL
[2]
  Blood urea nitrogen: 13.58 ± 0.79 mg/dL
  Bodyweight: 240.35 ± 4.20 g
  Plasma glucose levels: 117.00 ± 6.10 mg/dL
  Serum creatinine: 0.36 ± 0.02 mg/dL
  Urinary albumin excretion: 3.26 ± 0.25 mg/dL
